## Microarray screen: hit calls

From ROBIN, a set of small-molecule microarray screens (doi:10.1002/anie.202211358).

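Compounds were printed on reactive glass slides in duplicate spots, a dye-labelled oligonucleotide was laid over them, and the fluorescence left after washing was read. The data file lists only calls. An earlier report of the laboratory on the PreQ1, TPP and SAM-II riboswitches (doi:10.1038/s41467-019-09493-3) used 1 µM RNA for 2 h and required a mean Z-score above 3 (spot signal-to-noise against the whole library), a score well above that on a control array, and duplicate spots agreeing (coefficient of variation under 100); it then also set aside compounds that hit other targets, which this list keeps. The cut-offs behind this list may differ. The calls come from the array alone, and fixing a compound to the slide can hide its binding.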
“active” means called a hit, “inactive” means screened and not called a hit.
The compounds are a random part of those screened.
A target missing from an entry has no call listed here.

Oligonucleotides screened, 5′ to 3′:
TPP: TPP riboswitch RNA three-way junction, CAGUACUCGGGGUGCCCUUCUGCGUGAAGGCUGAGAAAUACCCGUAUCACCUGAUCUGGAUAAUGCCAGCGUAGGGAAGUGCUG. About 24,000 compounds screened, about 160 hits.
PreQ1: PreQ1 riboswitch RNA pseudoknot, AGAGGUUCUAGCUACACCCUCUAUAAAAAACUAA. From B. subtilis. About 24,000 compounds screened, about 170 hits.
SAM-II: SAM-II riboswitch RNA pseudoknot, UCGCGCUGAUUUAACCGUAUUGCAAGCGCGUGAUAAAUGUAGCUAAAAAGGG. About 21,000 compounds screened, about 200 hits.

For OCCN(CC#CCC(O)(c1ccccc1)c1ccccc1)CCO the calls were TPP: inactive; PreQ1: inactive; SAM-II: inactive.
For Cc1ccc(-n2nc(C(=O)N3CCN(CCO)CC3)nc2-c2ccccc2)cc1 the calls were TPP: inactive; PreQ1: inactive.
For O=C1CCCN1CC(=O)N1C[C@@H](CN2CCCC2)[C@@H](CO)C1 the calls were TPP: inactive; PreQ1: inactive; SAM-II: inactive.
For CCc1cc(Nc2nccc(-c3c(-c4ccc(OC)c(C(=O)Nc5c(F)cccc5F)c4)nc4ccccn34)n2)c(OC)cc1N1CCC(N2CCN(S(C)(=O)=O)CC2)CC1 the calls were TPP: inactive; PreQ1: inactive; SAM-II: inactive.
For CCn1c(N)nc2cc(C(=O)NCCCc3scnc3C)cnc21 the calls were TPP: inactive; PreQ1: inactive; SAM-II: inactive.
For Fc1ccc(Nc2c(-c3ccco3)nc3ccccn23)cc1 the calls were TPP: inactive; PreQ1: inactive; SAM-II: inactive.
For CN(C)c1nc(-c2cccc3c2OC(CN)C3)ncc1F (centres undefined) the calls were TPP: inactive; PreQ1: inactive; SAM-II: active.
For CCOC(=O)c1ccc2ncc(C(=O)OCC)c(Nc3ccccc3OCC)c2c1 the calls were TPP: inactive; PreQ1: inactive; SAM-II: inactive.
For CC(C)CNc1oc(-c2ccc(Cl)cc2)nc1S(=O)(=O)c1ccccc1 the calls were TPP: inactive; PreQ1: inactive.
For Cc1nc2c(-c3ccccc3)c(C)nn2c(NCCN(C)C)c1Cc1ccccc1 the calls were TPP: inactive; PreQ1: inactive.
For CNCCN1C(=O)CC[C@H]2CN(c3cccc(C(F)(F)F)n3)CC[C@H]21 the calls were TPP: inactive; PreQ1: inactive; SAM-II: inactive.
For CCC[C@H]1CN(C2CCOCC2)C[C@@H]1NC(=O)c1cnc(N)nc1C the calls were TPP: inactive; PreQ1: inactive; SAM-II: inactive.
For Cc1ccc(S(=O)(=O)NC2CCCCC2Nc2ccc(Br)cc2)cc1 (centres undefined) the calls were TPP: inactive; PreQ1: inactive.
For CN1CCC2(CCCN(C3CCC4(CCNCC4)CC3)C2)C1 (centres undefined) the calls were TPP: inactive; PreQ1: inactive; SAM-II: inactive.
For NCCn1cc(C(=O)NCc2noc(-c3ccc4c(c3)OCO4)n2)nn1 the calls were TPP: inactive; PreQ1: inactive; SAM-II: inactive.
For c1ccc(-c2nnc(CNCCN3CCOCC3)o2)cc1 the calls were TPP: inactive; PreQ1: inactive.
For O=C(OCCNC1=NS(=O)(=O)c2ccccc21)c1ccccc1 the calls were TPP: inactive; PreQ1: inactive; SAM-II: inactive.
For COc1cccc(CNc2ccc3c(c2)ncn3-c2ccccc2)c1OC the calls were TPP: inactive; PreQ1: inactive; SAM-II: inactive.
For O=C(NC(Cn1cccn1)c1ccccc1)c1cc2n(n1)CCNC2 (centres undefined) the calls were TPP: inactive; PreQ1: inactive; SAM-II: inactive.
For CCNC(=O)[C@@H]1C[C@@H](N)CN1Cc1nn(C)c2cccc(Cl)c12 the calls were TPP: inactive; PreQ1: inactive; SAM-II: inactive.
For COCCN1CCCC2(CCN(C(=O)c3ccc4c(c3)CCCN4)C2)C1=O (centres undefined) the calls were TPP: inactive; PreQ1: inactive; SAM-II: inactive.
For O=c1[nH]c(CCNC2CCSC2)nc2ccccc12 (centres undefined) the calls were TPP: inactive; PreQ1: inactive; SAM-II: inactive.

2 of the entries, repeated:

- O=C(OCCNC1=NS(=O)(=O)c2ccccc21)c1ccccc1 : TPP: inactive; PreQ1: inactive; SAM-II: inactive
- CN1CCC2(CCCN(C3CCC4(CCNCC4)CC3)C2)C1 (centres undefined) : TPP: inactive; PreQ1: inactive; SAM-II: inactive